Test results from PubChem BioAssay AID206 (DTP/NCI, 2004).
The list does not hold the whole screen: it gathers tests that were run many times, whatever their T/C, doses with no T/C, and many T/C values between a quarter and a half above the control. Further doses and runs are listed elsewhere. T/C gives the treated animals as a percentage of the vehicle group. Schedules are NCI's codes, taken here to give the interval after Q, in days (D) or hours (H), and the number of doses after X. Some T/C values are followed by the survivors on the day toxicity was checked, most often the fifth; where none is given, no animal had died by that day. Some doses were run more than once; the values are given in rising order. Additions like (4×) count equal records among those shown. Some entries give survivors of the animals treated and no T/C: the source holds a T/C of zero for them, seemingly a mark for toxic or unscored doses. Counts of survivors are from the toxicity check (mostly the fifth day) where no day follows; animals may have died later.

Test system: nude mice, HT29 intrarenal xenograft, tumor weight T/C
Assay: NCI In Vivo Anticancer Drug Screen. Data for tumor model HT29;CX-1 Human Adenocarcinoma (MER+) (intrarenal inoculation) in NU/NU Swiss (nude) mice
Conditions: T/C endpoint: mean tumor weight change, higher T/C = larger tumour
In short: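 Mice with transplanted tumors are dosed with compound while controls get vehicle only. Survival or tumor burden is then assessed per group, and the treated value is expressed relative to control.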

CCCCn1cnc2c(=S)nc[nH]c21
survivor count (dose: 1200.0 mg/kg/injection, schedule: Q04DX004 (sc), vehicle: suspension in saline): 3 of 6 on day 15

O=C(CCBr)N1CCN(C(=O)CCBr)CC1
survivor count (dose: 50.0 mg/kg/injection, schedule: Q01DX010 (sc), vehicle: Klucel (hydroxypropylcellulose) (HPC)): 0 of 3 on day 20
survivor count (dose: 100.0 mg/kg/injection, schedule: Q01DX010 (sc), vehicle: Klucel (hydroxypropylcellulose) (HPC)): 0 of 3 on day 20

CSc1ccc2c(c1)C(N1CCN(C)CC1)Cc1ccccc1S2 (stereo not given)
T/C (dose: 100.0 mg/kg/injection, schedule: Q04DX004 (sc), vehicle: saline with Tween-80, evaluated on day 15): 135 % of control [5 of 6 alive on day 15]

O=NN(CCCl)C(=O)NC1CCCCC1
T/C (dose: 12.5 mg/kg/injection, schedule: Q04DX004 (sc), vehicle: Klucel (hydroxypropylcellulose) (HPC), evaluated on day 15): 126 % of control
survivor count (dose: 64.0 mg/kg/injection, schedule: Q01DX010 (sc), vehicle: saline with Tween-80): 0 of 3 on day 11
survivor count (dose: 100.0 mg/kg/injection, schedule: Q04DX004 (sc), vehicle: Klucel (hydroxypropylcellulose) (HPC)): 1 of 3 on day 15

NC(Cc1ccc(N(CCCl)CCCl)cc1)C(=O)O (stereo not given)
survivor count (dose: 20.0 mg/kg/injection, schedule: Q04DX004 (sc), vehicle: Klucel (hydroxypropylcellulose) (HPC)): 3 of 6 on day 15
survivor count (dose: 40.0 mg/kg/injection, schedule: Q04DX004 (sc), vehicle: Klucel (hydroxypropylcellulose) (HPC)): 0 of 6 on day 15 and 1 of 6 on day 15
survivor count (dose: 80.0 mg/kg/injection, schedule: Q04DX004 (sc), vehicle: Klucel (hydroxypropylcellulose) (HPC)): 0 of 6 on day 15

CCCCCC1c2cc(O)ccc2OC1N1CCOCC1 (stereo not given)
T/C (dose: 1200.0 mg/kg/injection, schedule: Q04DX004 (sc), vehicle: saline with Tween-80, evaluated on day 15): 143 % of control
survivor count (dose: 2400.0 mg/kg/injection, schedule: Q04DX004 (sc), vehicle: saline with Tween-80): 3 of 6 on day 15

COc1ccc(OC)c(Cc2cnc3nc(N)nc(N)c3c2C)c1
survivor count (dose: 600.0 mg/kg/injection, schedule: Q04DX004 (sc), vehicle: water): 2 of 6 on day 15
survivor count (dose: 1200.0 mg/kg/injection, schedule: Q04DX004 (sc), vehicle: water): 0 of 6 on day 15

O=C1NC2(CCCCC2)C(=O)N1CCN(CCCl)CCCl
survivor count (dose: 48.0 mg/kg/injection, schedule: Q01DX010 (sc), vehicle: saline): 0 of 3 on day 11
survivor count (dose: 96.0 mg/kg/injection, schedule: Q01DX010 (sc), vehicle: saline): 0 of 3 on day 11

COc1c(CNC(=O)CCl)cc2[nH]c(C)cc2c1CNC(=O)CCl
survivor count (dose: 1200.0 mg/kg/injection, schedule: Q04DX004 (sc), vehicle: Klucel (hydroxypropylcellulose) (HPC)): 1 of 6 on day 15
survivor count (dose: 2400.0 mg/kg/injection, schedule: Q04DX004 (sc), vehicle: Klucel (hydroxypropylcellulose) (HPC)): 3 of 6 on day 15

O=C(O)Cc1cccc2c(=O)cc(-c3ccccc3)oc12
T/C (dose: 150.0 mg/kg/injection, schedule: Q01DX001 (ip), vehicle: sodium bicarbonate, evaluated on day 15): 125 % of control
survivor count (dose: 267.0 mg/kg/injection, schedule: Q04DX003 (ip), vehicle: sodium bicarbonate): 2 of 6 on day 15
survivor count (dose: 356.0 mg/kg/injection, schedule: Q01DX001 (ip), vehicle: sodium bicarbonate): 3 of 6 on day 15

O=c1[nH]c(=O)n(C2CC(O)C(CO)O2)cc1F (stereo not given)
survivor count (dose: 100.0 mg/kg/injection, schedule: Q01DX010 (sc), vehicle: water): 1 of 2 on day 11
survivor count (dose: 200.0 mg/kg/injection, schedule: Q01DX010 (sc), vehicle: water): 0 of 3 on day 11

COc1cccc2c1C(=O)c1c(O)c3c(c(O)c1C2=O)CC(O)(/C(C)=N/NC(=O)CCC(=O)N/N=C(\C)C1(O)Cc2c(O)c4c(c(O)c2C(OC2CC(N)C(O)C(C)O2)C1)C(=O)c1c(OC)cccc1C4=O)CC3OC1CC(N)C(O)C(C)O1 (stereo not given)
survivor count (dose: 50.0 mg/kg/injection, schedule: Q01DX010 (sc), vehicle: water): 0 of 3 on day 20
survivor count (dose: 125.0 mg/kg/injection, schedule: Q04DX004 (sc), vehicle: water): 1 of 3 on day 15

NC(=O)c1cn(C2OC(CO)C(O)C2O)c2ncnc(N)c12 (stereo not given)
survivor count (dose: 4.0 mg/kg/injection, schedule: Q01DX010 (sc), vehicle: saline): 0 of 3 on day 11
survivor count (dose: 8.0 mg/kg/injection, schedule: Q01DX010 (sc), vehicle: saline): 0 of 3 on day 11

COc1cc2cc(c1Cl)N(C)C(=O)CC(OC(=O)C(C)C)C1(C)OC1C(C)C1CC(O)(NC(=O)O1)C(OC)/C=C/C=C(C)C2 (stereo not given)
T/C (dose: 125.0 micrograms/kg/injection, schedule: Q04DX004 (sc), vehicle: saline + alcohol, evaluated on day 15): 125 % of control
survivor count (dose: 500.0 micrograms/kg/injection, schedule: Q04DX004 (sc), vehicle: saline + alcohol): 3 of 6 on day 15 and 3 of 5 on day 15

NC(=S)c1cn(C2OC(CO)C(O)C2O)c2ncnc(N)c12 (stereo not given)
survivor count (dose: 25.0 mg/kg/injection, schedule: Q04DX004 (sc), vehicle: suspension in saline): 1 of 6 on day 15
survivor count (dose: 50.0 mg/kg/injection, schedule: Q04DX004 (sc), vehicle: suspension in saline): 0 of 6 on day 15

CCOC(=O)C(CC(C)C)NC(=O)C(Cc1ccc(N(CCCl)CCCl)cc1)NC(C)=O (stereo not given)
T/C (dose: 50.0 mg/kg/injection, schedule: Q01DX010 (sc), vehicle: saline with Tween-80, evaluated on day 11): 9 [2 of 3 alive on day 11], 34, 48, 75 [4 of 6 alive on day 11], 88, 114 % of control
T/C (dose: 100.0 mg/kg/injection, schedule: Q01DX010 (sc), vehicle: saline with Tween-80, evaluated on day 11): 17, 46 [4 of 6 alive on day 11], 49 % of control (2×)
survivor count (dose: 100.0 mg/kg/injection, schedule: Q01DX010 (sc), vehicle: saline with Tween-80): 1 of 3 on day 11 and 2 of 6 on day 11
T/C (dose: 200.0 mg/kg/injection, schedule: Q01DX010 (sc), vehicle: saline with Tween-80, evaluated on day 11): 13, 73, 156 % of control [5 of 6 alive on day 11]
survivor count (dose: 200.0 mg/kg/injection, schedule: Q01DX010 (sc), vehicle: saline with Tween-80): 0 of 3 on day 11
survivor count (dose: 400.0 mg/kg/injection, schedule: Q01DX010 (sc), vehicle: saline with Tween-80): 0 of 3 on day 11

C=C(C)[C@]12CC(C)C34OC(/C=C\C=C\CCCCCCCCC)(O[C@@H]1[C@@H]3[C@@H]1O[C@]1(CO)[C@@H](O)[C@]1(O)C(=O)C(C)=C[C@@H]41)O2 (stereo not given in full)
survivor count (dose: 3.0 mg/kg/injection, schedule: Q04DX004 (sc), vehicle: distilled water + alcohol): 0 of 6 on day 15
survivor count (dose: 6.0 mg/kg/injection, schedule: Q04DX004 (sc), vehicle: distilled water + alcohol): 0 of 6 on day 15
survivor count (dose: 12.0 mg/kg/injection, schedule: Q04DX004 (sc), vehicle: distilled water + alcohol): 0 of 6 on day 15
survivor count (dose: 24.0 mg/kg/injection, schedule: Q04DX004 (sc), vehicle: distilled water + alcohol): 0 of 6 on day 15

COc1cccc2c1C(=O)c1c(O)c3c(c(O)c1C2=O)C[C@@](O)(/C(C)=N/NC(=O)c1cccc([N+](=O)[O-])c1)C[C@@H]3OC1CC(N)C(O)C(C)O1 (stereo not given in full)
survivor count (dose: 32.0 mg/kg/injection, schedule: Q01DX010 (sc), vehicle: water): 0 of 3 on day 20

CCCCCc1cc(/C=C2/N=C(c3ccc[nH]3)C=C2OC)[nH]c1C
survivor count (dose: 32.0 mg/kg/injection, schedule: Q04DX004 (sc), vehicle: saline with Tween-80): 3 of 6 on day 15
survivor count (dose: 64.0 mg/kg/injection, schedule: Q04DX004 (sc), vehicle: saline with Tween-80): 2 of 6 on day 15
survivor count (dose: 128.0 mg/kg/injection, schedule: Q04DX004 (sc), vehicle: saline with Tween-80): 0 of 6 on day 15

CCCCOC(=O)/C=C(\Br)C(=O)OCCCC
survivor count (dose: 1000.0 mg/kg/injection, schedule: Q04DX004 (sc), vehicle: saline with Tween-80): 1 of 5 on day 15

CC(=O)Oc1ccccc1O
survivor count (dose: 600.0 mg/kg/injection, schedule: Q04DX004 (sc), vehicle: saline + Tween-80 + alcohol): 3 of 6 on day 15

CN(C)c1ccc2c(N(C)C)cc(N(C)C)nc2c1
survivor count (dose: 150.0 mg/kg/injection, schedule: Q04DX004 (sc), vehicle: Klucel (hydroxypropylcellulose) (HPC)): 0 of 6 on day 15
survivor count (dose: 300.0 mg/kg/injection, schedule: Q04DX004 (sc), vehicle: Klucel (hydroxypropylcellulose) (HPC)): 0 of 6 on day 15
survivor count (dose: 600.0 mg/kg/injection, schedule: Q04DX004 (sc), vehicle: Klucel (hydroxypropylcellulose) (HPC)): 0 of 6 on day 15
